PubChem BioAssay AID1224830 – NIAID, 2016

- Assay: 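Genes whose knock-down alters the TNF-alpha reporter response to LPS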 (primary screen)
- Cells: human THP-1 monocytic leukaemia cells, TNF dual-luciferase reporter clone, PMA-differentiated to macrophage-like cells
- Reagent: siRNA pool against human genes, 50 nM
- Timing: LPS for 4 h, given about 3 days after siRNA transfection
- Challenge: bacterial LPS (TLR4 ligand), 10 ng/ml
- Read-out: 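TNF firefly reporter luminescence divided by renilla, normalised to the plate median, then turned into a robust z-score for each replicate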
- Direction: TNF reporter robust z-score: higher = stronger TNF reporter response to LPS
- Call rule: 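a well is active when its z-score exceeds 2.8 or falls below -1.5; control wells carry no call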
Shown is an unselected part of about 18,000 reagents. In the full data, about 2,900 (16%) are marked active. 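Calls are made per well; low scores hint the gene aids the LPS response, high scores that it dampens it.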 A number with no mark means an inactive call. Repeated entries: four replicate wells of each siRNA pool. No sequences are given here.

The opening 7 entries as a preview:
GSX1 → TNF reporter robust z-score = -0.75
GSX1 → TNF reporter robust z-score = -0.73
GSX1 → TNF reporter robust z-score = -0.61
GSX1 → TNF reporter robust z-score = -0.78
ACOT1 → TNF reporter robust z-score = 1.08
ACOT1 → TNF reporter robust z-score = 1.09
ACOT1 → TNF reporter robust z-score = 0.89

The listing, from the first entry:
GSX1 → TNF reporter robust z-score = -0.75
GSX1 → TNF reporter robust z-score = -0.73
GSX1 → TNF reporter robust z-score = -0.61
GSX1 → TNF reporter robust z-score = -0.78
ACOT1 → TNF reporter robust z-score = 1.08
ACOT1 → TNF reporter robust z-score = 1.09
ACOT1 → TNF reporter robust z-score = 0.89
ACOT1 → TNF reporter robust z-score = 1.81
MRGPRF → TNF reporter robust z-score = -0.32
MRGPRF → TNF reporter robust z-score = 0.01
MRGPRF → TNF reporter robust z-score = 0.69
MRGPRF → TNF reporter robust z-score = 0.14
HES3 → TNF reporter robust z-score = 1.94
HES3 → TNF reporter robust z-score = 0.8
HES3 → TNF reporter robust z-score = 1.36
HES3 → TNF reporter robust z-score = 0.64
TDRD10 → TNF reporter robust z-score = -0.19
TDRD10 → TNF reporter robust z-score = -0.28
TDRD10 → TNF reporter robust z-score = -1.29
TDRD10 → TNF reporter robust z-score = -0.54
DNAJB4 → TNF reporter robust z-score = -0.35
DNAJB4 → TNF reporter robust z-score = 1.46
DNAJB4 → TNF reporter robust z-score = 0.44
DNAJB4 → TNF reporter robust z-score = 1.4
PCDHB9 → TNF reporter robust z-score = 2.71
PCDHB9 → TNF reporter robust z-score = 0.04
PCDHB9 → TNF reporter robust z-score = -1.01
PCDHB9 → TNF reporter robust z-score = -0.18
ERP29 → TNF reporter robust z-score = 1.57
ERP29 → TNF reporter robust z-score = 3.36 (active)
ERP29 → TNF reporter robust z-score = 1.5
ERP29 → TNF reporter robust z-score = 4.17 (active)
LIMK1 → TNF reporter robust z-score = 0.26
LIMK1 → TNF reporter robust z-score = 1.05
LIMK1 → TNF reporter robust z-score = 0.16
LIMK1 → TNF reporter robust z-score = 1.33
L3MBTL3 → TNF reporter robust z-score = 1.53
L3MBTL3 → TNF reporter robust z-score = 0.83
L3MBTL3 → TNF reporter robust z-score = -1.29
L3MBTL3 → TNF reporter robust z-score = 0.49
SRBD1 → TNF reporter robust z-score = -0.5
SRBD1 → TNF reporter robust z-score = -0.15
SRBD1 → TNF reporter robust z-score = -0.21
SRBD1 → TNF reporter robust z-score = 0.32
SDR9C7 → TNF reporter robust z-score = -1.38
SDR9C7 → TNF reporter robust z-score = -1
SDR9C7 → TNF reporter robust z-score = -1.3
SDR9C7 → TNF reporter robust z-score = -0.69
BACH2 → TNF reporter robust z-score = -1.38
BACH2 → TNF reporter robust z-score = -0.8
BACH2 → TNF reporter robust z-score = -0.76
BACH2 → TNF reporter robust z-score = 1.06
SYDE1 → TNF reporter robust z-score = -0.63
SYDE1 → TNF reporter robust z-score = -0.49
SYDE1 → TNF reporter robust z-score = -1.06
SYDE1 → TNF reporter robust z-score = -0.07
NDUFAF6 → TNF reporter robust z-score = 0.01
NDUFAF6 → TNF reporter robust z-score = -0.81
NDUFAF6 → TNF reporter robust z-score = -0.39
NDUFAF6 → TNF reporter robust z-score = -0.52
